The text below walks through data of patent US20060034863A1 (CHEMOCENTRYX, published 2006).

No constants are given. Whether binding was seen depends on the method and setting. Some binding calls cover weakened binding; strength is not graded here.

In the test the target is T1, human chemokine receptor CCR1 (human, UniProt P32246 1-355).
T1 construct: whole, on cells; also called HEK293-CCR1 transfectants
T1 sequence (looked up): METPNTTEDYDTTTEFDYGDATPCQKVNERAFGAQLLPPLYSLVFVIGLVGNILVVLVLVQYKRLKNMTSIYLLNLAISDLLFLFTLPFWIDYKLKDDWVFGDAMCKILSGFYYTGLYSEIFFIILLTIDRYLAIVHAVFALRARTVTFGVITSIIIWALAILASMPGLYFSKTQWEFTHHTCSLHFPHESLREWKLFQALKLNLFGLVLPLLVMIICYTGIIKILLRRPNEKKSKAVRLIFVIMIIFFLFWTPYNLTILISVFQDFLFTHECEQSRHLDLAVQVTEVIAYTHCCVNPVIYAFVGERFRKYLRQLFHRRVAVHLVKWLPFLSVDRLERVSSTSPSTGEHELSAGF
The test can be described thus: 125I-MIP-1α competition binding on HEK293-CCR1 cells.

B1: MIP-1α (ligand, human, UniProt P10147 27-92, looked up)
chain: ADTPTACCFSYTSRQIPQNFIADYFETSSQCSKPGVIFLTKRSRQVCADPSEEWVQKYVSDLELSA
notes: also called macrophage inflammatory protein
As to B1, the binding result is given as “binds”.
